Measurements from publication PMC8080686.
These are yes or no findings as the source states them, for the method shown. Binding seen in cells or lysates may run through a third protein. Some entries that bind do so weakly or less than the wild type. For some of these results: Where a sequence is shown, tags or fusion partners need not be part of it.

Protein sequences, listed by entry. Tags and fused reporters are not part of them.
UniProt Q96EB6: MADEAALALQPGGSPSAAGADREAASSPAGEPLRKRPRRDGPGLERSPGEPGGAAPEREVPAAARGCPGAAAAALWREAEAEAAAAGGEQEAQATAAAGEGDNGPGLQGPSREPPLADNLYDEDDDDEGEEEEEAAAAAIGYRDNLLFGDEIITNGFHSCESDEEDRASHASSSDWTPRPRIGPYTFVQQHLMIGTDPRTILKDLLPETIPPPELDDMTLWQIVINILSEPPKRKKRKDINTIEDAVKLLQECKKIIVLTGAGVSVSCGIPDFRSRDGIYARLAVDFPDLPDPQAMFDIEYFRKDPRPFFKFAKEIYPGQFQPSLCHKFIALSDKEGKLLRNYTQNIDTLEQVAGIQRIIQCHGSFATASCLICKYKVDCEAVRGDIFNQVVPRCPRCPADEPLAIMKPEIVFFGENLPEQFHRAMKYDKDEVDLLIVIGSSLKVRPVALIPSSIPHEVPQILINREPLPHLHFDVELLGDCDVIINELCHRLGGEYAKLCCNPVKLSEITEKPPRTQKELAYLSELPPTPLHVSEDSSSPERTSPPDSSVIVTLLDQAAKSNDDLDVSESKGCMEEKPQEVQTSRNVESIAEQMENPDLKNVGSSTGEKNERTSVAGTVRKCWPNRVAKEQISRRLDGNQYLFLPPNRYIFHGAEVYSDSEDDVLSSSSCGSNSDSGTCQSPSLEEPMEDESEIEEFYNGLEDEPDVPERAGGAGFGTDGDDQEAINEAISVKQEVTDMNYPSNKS
UniProt Q92793: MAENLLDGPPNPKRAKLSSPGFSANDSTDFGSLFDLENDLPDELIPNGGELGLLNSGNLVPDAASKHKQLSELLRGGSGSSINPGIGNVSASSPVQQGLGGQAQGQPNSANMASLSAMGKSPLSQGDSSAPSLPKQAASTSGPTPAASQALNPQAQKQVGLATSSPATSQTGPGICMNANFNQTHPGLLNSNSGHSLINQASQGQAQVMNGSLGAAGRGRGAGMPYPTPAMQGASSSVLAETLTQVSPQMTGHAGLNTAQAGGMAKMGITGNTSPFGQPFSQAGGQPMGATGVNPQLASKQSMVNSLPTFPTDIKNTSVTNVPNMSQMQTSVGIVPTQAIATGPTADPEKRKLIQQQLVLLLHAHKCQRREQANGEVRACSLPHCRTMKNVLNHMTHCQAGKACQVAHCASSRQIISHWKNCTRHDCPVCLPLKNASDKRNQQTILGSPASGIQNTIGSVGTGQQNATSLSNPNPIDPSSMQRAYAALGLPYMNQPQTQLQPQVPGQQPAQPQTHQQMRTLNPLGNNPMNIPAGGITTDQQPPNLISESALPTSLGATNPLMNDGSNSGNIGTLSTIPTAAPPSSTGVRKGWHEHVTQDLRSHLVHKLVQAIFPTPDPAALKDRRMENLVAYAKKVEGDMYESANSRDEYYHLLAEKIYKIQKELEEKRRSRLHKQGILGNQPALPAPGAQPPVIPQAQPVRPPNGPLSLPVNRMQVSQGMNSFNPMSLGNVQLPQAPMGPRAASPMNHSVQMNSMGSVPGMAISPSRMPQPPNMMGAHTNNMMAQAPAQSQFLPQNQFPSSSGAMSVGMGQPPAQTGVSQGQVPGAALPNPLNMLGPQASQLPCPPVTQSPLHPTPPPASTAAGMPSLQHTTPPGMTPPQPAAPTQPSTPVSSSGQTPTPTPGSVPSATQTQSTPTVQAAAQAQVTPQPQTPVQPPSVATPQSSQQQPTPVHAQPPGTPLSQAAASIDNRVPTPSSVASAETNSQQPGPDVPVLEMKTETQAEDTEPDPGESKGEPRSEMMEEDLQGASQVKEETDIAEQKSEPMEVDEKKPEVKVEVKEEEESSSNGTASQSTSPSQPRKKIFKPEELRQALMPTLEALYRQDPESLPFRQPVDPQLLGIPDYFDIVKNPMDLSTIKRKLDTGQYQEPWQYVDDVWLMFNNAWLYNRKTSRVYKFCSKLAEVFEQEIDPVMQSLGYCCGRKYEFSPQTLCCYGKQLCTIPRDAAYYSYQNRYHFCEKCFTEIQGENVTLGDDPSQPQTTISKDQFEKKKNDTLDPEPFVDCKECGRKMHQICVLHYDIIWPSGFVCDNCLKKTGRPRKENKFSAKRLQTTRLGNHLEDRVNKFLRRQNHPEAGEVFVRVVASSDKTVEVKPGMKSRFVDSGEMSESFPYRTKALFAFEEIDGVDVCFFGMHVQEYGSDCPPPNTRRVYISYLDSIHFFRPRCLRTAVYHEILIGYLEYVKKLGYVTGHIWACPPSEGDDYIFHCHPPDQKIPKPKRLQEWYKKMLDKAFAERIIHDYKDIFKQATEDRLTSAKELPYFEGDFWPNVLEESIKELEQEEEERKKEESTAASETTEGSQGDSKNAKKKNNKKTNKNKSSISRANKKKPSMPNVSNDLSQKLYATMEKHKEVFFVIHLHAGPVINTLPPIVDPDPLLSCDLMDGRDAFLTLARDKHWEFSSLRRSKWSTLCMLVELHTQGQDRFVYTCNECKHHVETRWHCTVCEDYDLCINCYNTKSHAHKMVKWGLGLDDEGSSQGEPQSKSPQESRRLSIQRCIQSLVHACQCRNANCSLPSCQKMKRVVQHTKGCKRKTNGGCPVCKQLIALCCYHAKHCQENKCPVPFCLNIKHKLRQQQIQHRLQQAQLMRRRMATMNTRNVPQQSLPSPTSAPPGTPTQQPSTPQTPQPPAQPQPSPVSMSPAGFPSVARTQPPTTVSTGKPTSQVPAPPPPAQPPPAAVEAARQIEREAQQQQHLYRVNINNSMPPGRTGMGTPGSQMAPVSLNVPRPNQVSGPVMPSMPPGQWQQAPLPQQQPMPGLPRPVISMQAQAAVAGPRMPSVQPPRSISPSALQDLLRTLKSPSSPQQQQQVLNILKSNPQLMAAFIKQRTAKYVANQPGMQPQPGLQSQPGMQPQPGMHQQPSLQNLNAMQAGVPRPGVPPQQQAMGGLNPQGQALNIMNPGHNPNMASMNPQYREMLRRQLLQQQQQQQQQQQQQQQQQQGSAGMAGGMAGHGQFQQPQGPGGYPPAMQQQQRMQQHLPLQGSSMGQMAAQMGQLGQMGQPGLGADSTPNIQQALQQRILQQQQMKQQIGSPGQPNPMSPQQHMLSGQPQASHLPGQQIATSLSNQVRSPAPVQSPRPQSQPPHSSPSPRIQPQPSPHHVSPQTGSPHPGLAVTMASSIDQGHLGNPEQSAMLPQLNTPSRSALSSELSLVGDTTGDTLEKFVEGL
UniProt P35222: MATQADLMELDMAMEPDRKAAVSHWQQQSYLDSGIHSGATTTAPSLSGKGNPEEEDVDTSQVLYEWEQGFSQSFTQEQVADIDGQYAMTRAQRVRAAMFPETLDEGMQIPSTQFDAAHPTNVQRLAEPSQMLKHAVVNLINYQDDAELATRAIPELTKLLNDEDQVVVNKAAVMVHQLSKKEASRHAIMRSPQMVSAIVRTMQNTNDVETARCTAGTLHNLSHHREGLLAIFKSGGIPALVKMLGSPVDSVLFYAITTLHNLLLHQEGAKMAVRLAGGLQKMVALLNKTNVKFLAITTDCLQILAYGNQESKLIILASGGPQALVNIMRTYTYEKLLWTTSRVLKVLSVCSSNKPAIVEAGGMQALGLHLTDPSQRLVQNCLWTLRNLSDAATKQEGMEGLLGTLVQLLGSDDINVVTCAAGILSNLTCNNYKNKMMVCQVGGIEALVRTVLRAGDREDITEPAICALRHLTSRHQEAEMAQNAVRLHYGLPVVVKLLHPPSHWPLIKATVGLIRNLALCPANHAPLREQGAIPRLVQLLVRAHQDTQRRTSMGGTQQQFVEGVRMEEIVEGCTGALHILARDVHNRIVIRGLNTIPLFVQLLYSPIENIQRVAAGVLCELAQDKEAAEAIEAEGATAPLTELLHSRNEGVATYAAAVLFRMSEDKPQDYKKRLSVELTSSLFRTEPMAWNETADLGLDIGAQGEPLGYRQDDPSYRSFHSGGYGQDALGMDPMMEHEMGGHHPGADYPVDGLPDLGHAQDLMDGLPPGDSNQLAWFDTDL
UniProt O75030: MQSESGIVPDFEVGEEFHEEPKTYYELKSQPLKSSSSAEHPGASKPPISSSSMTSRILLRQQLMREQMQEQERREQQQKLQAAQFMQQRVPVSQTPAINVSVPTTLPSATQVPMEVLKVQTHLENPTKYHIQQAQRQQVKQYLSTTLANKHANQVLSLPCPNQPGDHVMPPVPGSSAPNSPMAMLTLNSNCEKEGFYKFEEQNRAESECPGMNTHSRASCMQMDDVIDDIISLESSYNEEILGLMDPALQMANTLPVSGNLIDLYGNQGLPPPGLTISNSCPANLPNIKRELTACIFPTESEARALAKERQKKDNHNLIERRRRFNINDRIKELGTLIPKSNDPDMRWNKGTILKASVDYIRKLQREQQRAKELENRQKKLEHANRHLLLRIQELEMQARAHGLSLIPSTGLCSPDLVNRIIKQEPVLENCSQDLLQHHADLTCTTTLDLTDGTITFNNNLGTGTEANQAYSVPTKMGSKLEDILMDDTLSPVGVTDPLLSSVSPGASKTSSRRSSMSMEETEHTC

Legend:
[1] = biological target: HA-SIRT1 wild type (UniProt Q96EB6); assay: co-IP; tagged proteins coexpressed in HEK293T; IP with HA or Flag antibody and protein G agarose overnight at 4 °C in IP buffer (20 mM HEPES pH 7.0, 180 mM KCl, 0.2 mM EGTA, 1.5 mM MgCl2, 20% glycerol, 1% NP-40), western blot; for HINT1 with β-catenin also with coexpressed HA-SIRT1 WT or HY and/or CBP
[2] = biological target: HA-CBP (UniProt Q92793); assay: as above
[3] = biological target: Flag-HINT1 wild type (histidine triad nucleotide-binding protein 1) (human) (UniProt P49773); assay: as above
[4] = biological target: T1, Flag-HINT1 2KR (K21/30R), deacetylation mimetic mutant (human) (UniProt P49773); assay: as above
T1 sequence: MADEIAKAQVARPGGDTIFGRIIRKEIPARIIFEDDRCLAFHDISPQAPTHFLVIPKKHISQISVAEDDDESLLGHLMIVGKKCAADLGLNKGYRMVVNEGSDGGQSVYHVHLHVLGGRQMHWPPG

[5] = biological target: endogenous HINT1 (human (endogenous in DLD1, SW480, A375)) (UniProt P49773); assay: co-IP; endogenous proteins of DLD1 or SW480 cells immunoprecipitated and immunoblotted; IP buffer 20 mM HEPES pH 7.0, 180 mM KCl, 1% NP-40, overnight at 4 °C
[6] = biological target: endogenous SIRT1 (human (endogenous in SW480, DLD1)) (UniProt Q96EB6); assay: as above
[7] = biological target: endogenous CBP (human (endogenous in DLD1, SW480)) (UniProt Q92793); assay: as above
[8] = biological target: T1, Flag-HINT1 2KR (K21/30R), deacetylation mimetic mutant (human); assay: co-IP; A375 cells transfected with Flag-HINT1 WT or 2KR; IP and western blot
[9] = biological target: Flag-HINT1 wild type (histidine triad nucleotide-binding protein 1) (human) (UniProt P49773); assay: as above
[10] = biological target: endogenous HINT1 (human (endogenous in DLD1, SW480, A375)) (UniProt P49773); assay: co-IP; endogenous HINT1 and MITF in A375 cells transfected with Flag-SIRT1 WT or HY; IP and western blot
[11] = biological target: Flag-HINT1 wild type (histidine triad nucleotide-binding protein 1) (human) (UniProt P49773); assay: co-IP; DLD1 cells transfected with Flag-HINT1; shCON or shSIRT1 knock-down, or EX527 (10 µM) and sirtinol (10 µM) for 12 h; IP and western blot
[12] = biological target: endogenous HINT1 (human (endogenous in DLD1, SW480, A375)) (UniProt P49773); assay: co-IP; endogenous HINT1 and β-catenin in DLD1 cells expressing Flag-SIRT1 WT or HY; IP and western blot

Q: For “Flag-HINT1 wild type (histidine triad nucleotide-binding protein 1) (from UniProt P49773 1-126)”, which binding [1] is on record?
A: binds

Q: What about the binding [2] of the same substance?
A: binds

Q: With “HA-CBP (from UniProt Q92793 1-2442) (enzyme)” as the substance, how does the binding [3] read?
A: binds

Q: Which binding [4] does the source give for “HA-β-catenin (from UniProt P35222 1-781)” here?
A: binds

Q: What about the binding [3] of the same substance?
A: binds

Q: How did the binding [5] turn out when “endogenous CBP (from UniProt Q92793 1-2442) (enzyme)” was run?
A: binds

Q: For “endogenous HINT1 (from UniProt P49773 1-126)”, which binding [6] is on record?
A: binds

Q: What about the binding [7] of the same substance?
A: binds

Q: “endogenous microphthalmia transcription factor (MITF) (from UniProt O75030 1-526)” was tested. Which binding [8] did it give?
A: binds

Q: And the binding [9]?
A: binds

Q: What about the binding [10] of the same substance?
A: binds

Q: For “endogenous β-catenin (from UniProt P35222 1-781)”, which binding [11] is on record?
A: binds

Q: What about the binding [12] of the same substance?
A: binds
